Laboratory results from article PMC12632274, “The PA2803-encoded PcrP exhibits a novel non-catalytic function and contributes to polymyxin B resistance in P. aeruginosa” (Journal of Bacteriology, 2025).
Results are given in words; binding and its absence hold for the method and conditions named. Binding seen in cells or lysates may run through a third protein. Here binding means that the protein was enriched with, or labelled near, the bait; the list need not be complete.

B1: PA3233 hypothetical protein (protein, UniProt Q9HZ07 1-599)
chain: MPDSFNFASPPFDQLRPHQRETLKQALSVGYYAPGETLLEAGSAVPGLFVLLKGVVEERGDDGRVFAQYAADDLFDVRGLFSGSSKHRYLAIEESIVYELPASCFHQLCGENPGFARFFQADLAAKRQLAQRDGQNLAEFILTRIAREHLLPALEVEASLSLGDAARLQLSHGADALLVRLERDGPELGIVTRTDLMSAHFRDGRSELEAIGPLAHGPLASVELGDFLFDAMILMTRQRIERVAVTEDGQVIGLLHLTQVLSLFSTHSHVLALRIARADDLGDLRRCAETLDTLIATLAGNGIRLRFIMQLVSALNEQLLERLFELLLPPTLRGRCCLLVMGSEGRGEQLLKTDQDNALVLADDLPQEQALAMMQRFSAALLEFGYPPCPGGVMASRPEWCKPLAAWQAELRGTLLEGKPEQLLRLSILADAWPVAGNLQLFEPLRWQLRGFADGGERWLADIAAAALQFDTPLTFLGQLKTQDARLDLKRGGIFPIVHGIRTLALREGLETRGTLARIEALKRHKVLEARLADDLSESFELFLQLRLTRQLAGQRDGRQQGLDVSGMSRHDRDMLRYGLHVVKKFKQSVARQFHLETR
B2: PA3518 hypothetical protein (protein, UniProt Q9HY91 1-328)
chain: MNTRNFSLPQLQNLPIEEARIVADALAVHATSRQIDSAASKLAALAEAGLKGDRQAYAAYQQLLYVLSLSDDVATAQTRRWLARAIYRVEERFMPAADLSRALSEEDFQKRLEQEIAAQSRERHPMSQYVFSGSASRAQLQVFLRHQWFRTFRLYRDAADLLVNLTDVDEAAALARYLYGELGEEDEKGSHPRLLAKLLEAIGLEADFQAVSTMPEEIAYLNNRARAFRHAEVGWGLAVFYITELVVPGNHEKLYRALLQAGLSEDQAEYYKVHISLVPPRAKREWQLIARRIPDVQFQNAFLTSLSQHFRVERAYYDAIWEEMQSVK
B3: Coproporphyrinogen III oxidase (PA1546) (protein, UniProt P77915 1-460)
chain: MLDTIRWDADLIRRYDLSGPRYTSYPTAVQFHEGIGPFDQLHALRDSRKAGHPLSLYVHIPFCANICYYCACNKVITKDRGRSAPYLARLVREIEIVSRHLSREQVVEQLHFGGGTPTFLSPGQLRELMSQLRTHLNLLDDDSGDYGIEIDPREADWSTMGLLRELGFNRVSLGVQDFDMEVQKAVNRMQTPEETRTIVEAARTLQYRSINLDLIYGLPKQTPDSFARTVDEVIALQPDRLSVFNYAHLPERFMPQRRINADDLPSPGQKLEMLQRTTEQLAAAGYRYIGMDHFALPDDELASAQEDGTLQRNFQGYTTHGHCDLVGLGVSAISQIGDLYSQNSSDINDYQTSLDNGQLAIRRGLHCNSDDRVRRAVIQQLICHFELAFEDIETEFGIDFRSYFAELWPDLERFAADGLIRLDAKGIDITSSGRLLVRSICMLFDRYLPSLNRQRFSRVI
B4: Methyltransferase (PA5457) (protein, UniProt Q9HTB3 1-287)
chain: MIRALLQRWRSRPAAASEPVSPRMCGLRDAVLDGWFRSETGELLAGFAIGAQDTLLDLGCGEGVATLFAARQGASVIFTDSEEDKVRSLAQQVEAVARRPFTGLVSDSDPLPLRDACADKLVCMEVLEHVANPARVMAELVRLGRPGAQYLLSVPDPVGEHLQQGIAPADYFRAPNHIHIFSRDDFARLVQDAGLVIEHRQASGFFWVMGMIFFWASERAAGRELGGAVRDRIQPPYPALMEDWARLWENLLARPDGLEIKHLLDHFMPKSQVIIARKPLDPGSSRT
B5: PA5269 hypothetical protein (protein, UniProt Q9HTT1 1-91)
chain: MSEQDDNQEDGFAEEKLIQAIENQIESENPPAARAVFNKLTLVGYERDEALGMMAYVLAHEINAMLAADRAFDSAGYEHALRALPTLPDDE
B6: PqsB (PA0997) (protein, UniProt Q9I4X2 1-283)
chain: MLIQAVGVNLPPSYVCLEGPLGGERPRAQGDEMLMQRLLPAVREALDEAAVKPEEIDLIVGLALSPDHLIENRDIMAPKIGHPLQKVLGANRAHVFDLTDSSLARALYVVDTLASDQGYRNVLVVRGESSQGLEVDSESGFALADGALALLCRPTGKAAFRRGALGGDPAQEWLPLSIPLNTDIRQVGDVKGHLNLPAQPGLPEAVRAGFTRLAGDFPQLNWVREEWFGQGRPDGRCLGPFELASQLRAAQRDRLDELLLISFDPFGMVVEGVTLELAGEAHA
B7: PA3374 conserved hypothetical protein (protein, UniProt Q9HYM7 1-387)
chain: MSSERVLSNARVVSAERVFVGSVLLRDGLIAAVDEGRSHLAGAEDLGGDYLLPGLVELHTDNLEKHMTPRPGVDWPSASAVLAHDAQIVSAGITTVFDALSIGDVNPKGKRMQQLPKMLEAIGEAAASGDARADHRLHLRCEVSHPQTLEVFRELVEHPLVQLVSVMDHAPGQRQFARLEKYREYYQGKYHLSDAEMDAFIVEQVANSERYSDAARAAIVDVCQGRGLSVASHDDATLAHVRESAGYGMAIAEFPTTVEAARASHEHGLQVLMGAPNVVRGGSHSGNVAAAQLAGIGVLDILSSDYYPASLLHAALLLAGEHSEYDAIRYDLPRAVAMVSRTPALAAGLTDRGEIRVGLRADLLQARALGNNQPVVRQVWRGGQRVF
B8: PA0805 hypothetical protein (protein, UniProt Q9I5D3 1-75)
chain: MSIQHRTQDAIRTLTAAFAPFDCLIQATRKGNFSFTIVDQHGVACHSERLYPEQYDDSGKMEEVINRVRKKTLAA
B9: PA3720 hypothetical protein (protein, UniProt Q9HXS1 1-141)
chain: MNAPAKSLLDIDAFPLVQVREMPRELADVERWLEEVEALLAVERDFALVYPPLPQETAEGDQQARKRLVLWLKENRQRFVEHCRGILLSANGQPDNLADLQQLAPVLQAVYGPPVSVAPDLASARGMAKALLSGPATGMNW
B10: PA5475 hypothetical protein (protein, UniProt Q9HT95 1-186)
chain: MSNVQNASRSSAFAAVEGDHWVESLDDGRHVLIRPLREEDRERERQFINRLSPATRHFRFLGEIKEASPALLDQLMDIDYQQSMAFVALVHEDGELREVGISRYAACCEEGQCECAVTIADDYQGLGLDAVLMRHLIDVARRNGFRQMYSVDSAANRAMRDLCCALGFVGQRDPDDSTQVIHRLAL
B11: PA1218 hypothetical protein (protein, UniProt Q9I4C0 1-292)
chain: MKHYRQVVSPQLRQQALDWILAAAQRPDPALEPEFDIADDERREAKKVRNLHRHDPLFWDDWFARSGLDALVRDHLRKPRLLRHAAFIKRHADESYIPLHQDIALWEKRYESAQTFWVALTPSRNDNGGMFYYPDDRTIFPHEFDLAYPMFKCIDLQANGISREQLVDAELDAGDVLVWPARTAHGSHNNRSGQLRIGMPIVFVEDDEFHQLNREDSMKTWIASNLKSVFPDEAITEDNLDHYLPQLCDYSLKMVTFLARFSRQFGHAPKIHDFIREPRLATLSASDAGARR
B12: PA1545 hypothetical protein (protein, UniProt Q04628 1-155)
chain: MLTLSGWITTQVPPSSRAAADAKAARTGTAEQAEDPAAGTDAADQHVQLSQAGRELAATMGVPVEEEDEDIPQELRPMVKMIRELKKKIEEKLRELQEAMRSSDPGAKEARVPELQKELQQLNSALQTATAAMASAIKEMGISDPALIMKVMGSR
B13: 50S ribosomal protein L27 (PA4567) (protein, UniProt Q9HVL7 1-85)
chain: MAHKKAGGSTRNGRDSESKRLGVKLFGGQAVKAGNILVRQRGTKFHAGYGVGLGKDHTLFAKVDGVVKFETKGAFGRKYVSIVAA
B14: PA5027 hypothetical protein (protein, UniProt Q9HUE2 1-271)
chain: MIRHLLVAHDLTPEADVALARAAQLARQHDARVSLLHVYDPGLSASAVKTVSAMLQLKRKEAGLDEDSAIHLFRGQPIDGILQQTRALEPDLLLMGAHHQKTFERFGNTTLDQVVRRSRVPVLLAVREADEPYRQALSALDFSQCACTALRQAYRLLPVEADLHALHVFESPDDGVLGLPRQNAAHLATQAGLIEQLLSDEQERLPGVGPQLSHEVVPGVLPYSLDAALKQRQPELLALGRHSRNALMQALLGNLAQRYLRQPSCDVLVTS

The molecules below were run against 6xHis-PcrP expressed in P. aeruginosa PAO1 ΔpcrP (P. aeruginosa PAO1) (UniProt Q9I040) (assay: affinity purification with mass spectrometry; 6xHis-PcrP as bait in lysate of PAO1 ΔpcrP grown in BMM8 at 0 or 5 mM Ca2+; HisPur Ni-NTA resin, 4°C, 2 h, 10 mM Tris-HCl pH 7.5; LC-MS/MS; ΔpcrP as negative control).

| Molecule | binding |
| --- | --- |
| HsiB2 (PA1657) (from UniProt Q9I368) | binds |
| Protein phosphatase (PA2978) (from UniProt Q9HZM6) | binds |
| Protease subunit HflC (PA4941) (from UniProt Q9HUM3) | binds |
| B1 | binds |
| B2 | binds |
| B3 | binds |
| B4 | binds |
| B5 | binds |
| B6 | binds |
| B7 | binds |
| B8 | binds |
| B9 | binds |
| B10 | binds |
| B11 | binds |
| B12 | binds |
| B13 | binds |
| B14 | binds |
